The values that follow come from PMC6677748.

The chains behind the UniProt entries cited, without tags or fusion partners.
UniProt O06874: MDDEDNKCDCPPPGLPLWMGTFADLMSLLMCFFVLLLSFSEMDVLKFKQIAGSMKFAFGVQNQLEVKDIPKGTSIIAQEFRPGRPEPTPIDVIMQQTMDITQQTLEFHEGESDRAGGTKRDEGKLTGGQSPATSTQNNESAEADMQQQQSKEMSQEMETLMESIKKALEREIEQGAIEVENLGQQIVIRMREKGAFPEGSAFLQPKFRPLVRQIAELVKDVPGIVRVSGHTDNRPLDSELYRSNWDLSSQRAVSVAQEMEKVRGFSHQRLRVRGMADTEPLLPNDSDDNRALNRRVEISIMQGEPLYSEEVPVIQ

No constants are given. Whether binding was seen depends on the method and setting. For some assays here: In cells and extracts the contact can be indirect. Some entries that bind do so weakly or less than the wild type.

In assay [1] the target is PomB with His6-tag at the C-terminus (wild type), subunit B of the Na+-driven flagellar stator complex of Vibrio alginolyticus (V. alginolyticus) (UniProt O06874). Kind of assay: co-purification (metal affinity, then SEC); PomA and PomB-His6 overexpressed together in E. coli; membrane fraction solubilised with 0.5% DMNG; TALON resin by the His6 tag of PomB, eluted with 200 mM imidazole, then Enrich SEC 650 column in DMNG; peak fractions checked by SDS-PAGE; sample used for ATR-FTIR.

Assay [2] has the same target. Kind of assay: pull-down; PomA and PomB-His6 co-expressed in E. coli; membrane fraction solubilised with 0.5% DMNG; PomB-His6 held on Ni-NTA agarose at room temperature in 50 mM sodium phosphate pH 8.0, 200 mM NaCl, 10 mM imidazole, 0.05% DMNG; eluted with 400 mM imidazole; Western blot with anti-PomA and anti-PomB antibodies. In general terms: In western blotting, separated proteins are transferred to a membrane and probed.

Take “PomA (wild type), subunit A of the Na+-driven flagellar stator complex of Vibrio alginolyticus (from UniProt O06873 1-253)”: the binding entry in assay [1] and in assay [2] was “binds” throughout.
